These are yes or no findings as the source states them, for the method shown. In cells and extracts the contact can be indirect. A yes stands for co-enrichment or nearness to the bait. Other partners may have been found.
B1: 50S ribosomal protein uL30 (protein, UniProt Q9HWF3 1-58)
chain: MATVKVTLVKSLNGRLANHKACVKGLGLRRINHTVEVQDTPENRGMINKAYYLLRVEG
B2: 50S ribosomal protein bL35 (protein, UniProt Q9I0A1 1-64)
chain: MPKMKTKSGAAKRFKKTAGGLKHKHAFKSHILTKMTTKRKRQLRGTSMLNKSDVARVERSLRLR

Target: ΦKZ014, C-terminally TEV-3×FLAG tagged (Pseudomonas phage ΦKZ)
Test: affinity purification with mass spectrometry

| Binder | binding |
| --- | --- |
| B1 | binds |
| B2 | binds |
